Values from PubChem BioAssay AID1259308 (NCATS, 2017).
Here is an unselected part of about 59,000 reagents tested. Of all reagents, about 1,510 (2.6%) were called active. 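Calls use total luciferase alone and ignore viability, so some active siRNAs may act by altering cell number.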 Unmarked entries are inactive. The numbers tell different reagents against one gene apart. Not all columns of the deposit are shown.

Assay: 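Candidate targets for better recombinant protein yield in mammalian cells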 (primary screen)
Cells: human HEK293 embryonic kidney cells stably expressing firefly luciferase (HEK-CMV-Luc2-Hygro)
Knock-down reagent: single siRNA against human genes, 0.8 pmol siRNA per well
Time to read-out: 72 h
Measured: 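Luciferase light (ONE-Glo) measured on one replicate plate set and viability (CellTiter-Glo) on the other, scaled to a negative control siRNA, with robust z-scores and luciferase per cell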
Direction: total luciferase, z-score and total luciferase, % of control: higher = more reporter protein produced
Rule for the call: 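An siRNA counts as active if its total luciferase robust z-score exceeds 3; genes with two or more such siRNAs out of three were retested with fresh siRNAs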
Meaning of the calls: active = raised luciferase; inactive = no rise

ACER1 (alkaline ceramidase 1) #1: total luciferase, z-score = 0.217; total luciferase, % of control = 86.2
ACER1 (alkaline ceramidase 1) #2: total luciferase, z-score = 1.01; total luciferase, % of control = 102
ACER1 (alkaline ceramidase 1) #3: total luciferase, z-score = -0.0879; total luciferase, % of control = 80.1
DARS1 (aspartyl-tRNA synthetase 1) #1: total luciferase, z-score = -1.79; total luciferase, % of control = 46.3
DARS1 (aspartyl-tRNA synthetase 1) #2: total luciferase, z-score = 0.161; total luciferase, % of control = 85.1
DARS1 (aspartyl-tRNA synthetase 1) #3: total luciferase, z-score = -1.31; total luciferase, % of control = 55.8
CA12 (carbonic anhydrase 12) #1: total luciferase, z-score = -0.134; total luciferase, % of control = 79.2
CA12 (carbonic anhydrase 12) #2: total luciferase, z-score = 0.968; total luciferase, % of control = 101
CA12 (carbonic anhydrase 12) #3: total luciferase, z-score = -0.683; total luciferase, % of control = 68.3
BTBD6 (BTB domain containing 6) #1: total luciferase, z-score = -0.684; total luciferase, % of control = 68.3
BTBD6 (BTB domain containing 6) #2: total luciferase, z-score = 0.0819; total luciferase, % of control = 83.5
BTBD6 (BTB domain containing 6) #3: total luciferase, z-score = -0.518; total luciferase, % of control = 71.6
SNAPIN (SNAP associated protein) #1: total luciferase, z-score = 1.06; total luciferase, % of control = 103
SNAPIN (SNAP associated protein) #2: total luciferase, z-score = -0.995; total luciferase, % of control = 62.1
SNAPIN (SNAP associated protein) #3: total luciferase, z-score = -1.04; total luciferase, % of control = 61.2
ZBTB8OSP2 #1: total luciferase, z-score = 0.0162; total luciferase, % of control = 82.2
ZBTB8OSP2 #2: total luciferase, z-score = 0.362; total luciferase, % of control = 89.1
ZBTB8OSP2 #3: total luciferase, z-score = 0.482; total luciferase, % of control = 91.5

Ordered by “total luciferase, % of control” (lowest first): 7 of the entries above
SNAPIN (SNAP associated protein) #3: total luciferase, z-score = -1.04; total luciferase, % of control = 61.2
SNAPIN (SNAP associated protein) #2: total luciferase, z-score = -0.995; total luciferase, % of control = 62.1
CA12 (carbonic anhydrase 12) #3: total luciferase, z-score = -0.683; total luciferase, % of control = 68.3
BTBD6 (BTB domain containing 6) #1: total luciferase, z-score = -0.684; total luciferase, % of control = 68.3
BTBD6 (BTB domain containing 6) #3: total luciferase, z-score = -0.518; total luciferase, % of control = 71.6
BTBD6 (BTB domain containing 6) #2: total luciferase, z-score = 0.0819; total luciferase, % of control = 83.5
SNAPIN (SNAP associated protein) #1: total luciferase, z-score = 1.06; total luciferase, % of control = 103

Further results follow:
LANCL3 (LanC like family member 3) #1: total luciferase, z-score = -1.73; total luciferase, % of control = 47.5
LANCL3 (LanC like family member 3) #2: total luciferase, z-score = 0.901; total luciferase, % of control = 99.8
LANCL3 (LanC like family member 3) #3: total luciferase, z-score = 0.919; total luciferase, % of control = 100
TRIM47 (tripartite motif containing 47) #1: total luciferase, z-score = 2.21; total luciferase, % of control = 126
TRIM47 (tripartite motif containing 47) #2: total luciferase, z-score = -0.866; total luciferase, % of control = 64.7
TRIM47 (tripartite motif containing 47) #3: total luciferase, z-score = 1.18; total luciferase, % of control = 105
MICOS13 #1: total luciferase, z-score = 0.584; total luciferase, % of control = 93.5
MICOS13 #2: total luciferase, z-score = 0.184; total luciferase, % of control = 85.6
MICOS13 #3: total luciferase, z-score = 0.274; total luciferase, % of control = 87.3
AGMO (alkylglycerol monooxygenase) #1: total luciferase, z-score = 0.332; total luciferase, % of control = 88.5
AGMO (alkylglycerol monooxygenase) #2: total luciferase, z-score = -0.0799; total luciferase, % of control = 80.3
AGMO (alkylglycerol monooxygenase) #3: total luciferase, z-score = 1.01; total luciferase, % of control = 102
CTRB1 (chymotrypsinogen B1) #1: total luciferase, z-score = 0.172; total luciferase, % of control = 85.3
CTRB1 (chymotrypsinogen B1) #2: total luciferase, z-score = 3.33 (active); total luciferase, % of control = 148
CTRB1 (chymotrypsinogen B1) #3: total luciferase, z-score = 0.95; total luciferase, % of control = 101
UNC13B (unc-13 homolog B) #1: total luciferase, z-score = 0.411; total luciferase, % of control = 90.1
UNC13B (unc-13 homolog B) #2: total luciferase, z-score = -1.24; total luciferase, % of control = 57.3
UNC13B (unc-13 homolog B) #3: total luciferase, z-score = -2.55; total luciferase, % of control = 31.2
CDKL1 (cyclin dependent kinase like 1) #1: total luciferase, z-score = -0.0305; total luciferase, % of control = 81.3
CDKL1 (cyclin dependent kinase like 1) #2: total luciferase, z-score = -0.201; total luciferase, % of control = 77.9
CDKL1 (cyclin dependent kinase like 1) #3: total luciferase, z-score = -1.28; total luciferase, % of control = 56.5
VPS11 (VPS11 core subunit of CORVET and HOPS complexes) #1: total luciferase, z-score = 0.195; total luciferase, % of control = 85.8
VPS11 (VPS11 core subunit of CORVET and HOPS complexes) #2: total luciferase, z-score = -0.62; total luciferase, % of control = 69.6
VPS11 (VPS11 core subunit of CORVET and HOPS complexes) #3: total luciferase, z-score = -1.37; total luciferase, % of control = 54.7
